Measurements from publication PMC13440570.
No constants are given. Whether binding was seen depends on the method and setting. Binding seen in cells or lysates may run through a third protein.

Target: T1, SDS:mVenus^Cter (PROSDS:SDS:mVenus^Cter) (Arabidopsis thaliana) (UniProt Q1PFW3)
T1 sequence: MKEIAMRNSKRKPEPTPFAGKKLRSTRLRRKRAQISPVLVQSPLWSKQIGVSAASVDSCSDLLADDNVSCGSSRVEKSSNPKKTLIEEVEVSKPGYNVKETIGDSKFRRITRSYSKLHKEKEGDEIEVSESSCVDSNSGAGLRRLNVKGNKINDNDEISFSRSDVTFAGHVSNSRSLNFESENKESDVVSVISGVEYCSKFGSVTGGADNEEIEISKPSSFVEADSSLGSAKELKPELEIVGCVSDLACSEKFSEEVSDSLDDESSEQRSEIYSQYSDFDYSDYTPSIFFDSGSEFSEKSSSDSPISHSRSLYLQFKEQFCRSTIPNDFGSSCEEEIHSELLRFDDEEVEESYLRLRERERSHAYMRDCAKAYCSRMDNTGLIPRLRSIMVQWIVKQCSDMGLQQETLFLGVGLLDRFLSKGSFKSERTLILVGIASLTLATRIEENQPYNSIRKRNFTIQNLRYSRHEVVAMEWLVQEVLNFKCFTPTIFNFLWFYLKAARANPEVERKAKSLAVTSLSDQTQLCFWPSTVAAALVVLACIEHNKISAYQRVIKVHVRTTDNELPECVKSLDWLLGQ
Test: split reporter; in planta BiFC (split mVenus) in male meiocytes of transformed Arabidopsis wild-type plants, native promoters; confocal microscopy of anthers

In the case of “ASY1^Δclosure-NLS:mVENUS^Nter (PRO_(ASY1):ASY1^Δclosure-NLS:mVENUS^Nter) (Arabidopsis thaliana | SV40) (domain or fragment)”, the binding was “no binding”.
